Source: patent US20240368262A1, “A MYOSTATIN PATHWAY INHIBITOR IN COMBINATION WITH A GLP-1 PATHWAY ACTIVATOR FOR USE IN TREATING METABOLIC DISORDERS” (SCHOLAR ROCK, INC., priority 2021, published 2024)
At least one structure is not confirmed: it was looked up by name or label, or the drawing left a doubt.

Legend:
[1] = test system: C57BL/6NTac DIO mice; experiment: 18-day liraglutide dose determining study, % change in body weight (Example 2); assay type: in vivo, mouse; conditions: 18-day dose determining study; FIG. 2A
[2] = test system: C57BL/6NTac DIO (diet induced obesity) mouse model; experiment: Myostatin inhibitor Ab2 in conjunction with liraglutide in DIO mice on high fat diet: body weight, body composition, liver lipid (Example 2); assay type: in vivo

Q: With CCCCCCCCCCCCCCCC(=O)N[C@@H](CCC(=O)NCCCC[C@H](NC(=O)[C@H](C)NC(=O)[C@H](C)NC(=O)[C@H](CCC(N)=O)NC(=O)CNC(=O)[C@H](CCC(=O)O)NC(=O)[C@H](CC(C)C)NC(=O)[C@H](Cc1ccc(O)cc1)NC(=O)[C@H](CO)NC(=O)[C@H](CO)NC(=O)[C@@H](NC(=O)[C@H](CC(=O)O)NC(=O)[C@H](CO)NC(=O)[C@@H](NC(=O)[C@H](Cc1ccccc1)NC(=O)[C@@H](NC(=O)CNC(=O)[C@H](CCC(=O)O)NC(=O)[C@H](C)NC(=O)[C@@H](N)Cc1cnc[nH]1)[C@@H](C)O)[C@@H](C)O)C(C)C)C(=O)N[C@@H](CCC(=O)O)C(=O)N[C@@H](Cc1ccccc1)C(=O)N[C@H](C(=O)N[C@@H](C)C(=O)N[C@@H](Cc1c[nH]c2ccccc12)C(=O)N[C@@H](CC(C)C)C(=O)N[C@H](C(=O)N[C@@H](CCCNC(=N)N)C(=O)NCC(=O)N[C@@H](CCCNC(=N)N)C(=O)NCC(=O)O)C(C)C)[C@@H](C)CC)C(=O)O [liraglutide, reference compound] as the compound, how does the “% change in body weight” value [1] read?
A: dose-proportional change in weight

Q: And the “percent change in mass of the gastrocnemius muscle” value ([2]; liraglutide 0.06 mg/kg with control IgG antibody, FIG. 2D)?
A: lost gastrocnemius muscle mass

Q: What about the “% body weight change from baseline” value ([2]; liraglutide 0.03, 0.06 or 0.10 mg/kg s.c. daily, end of 30-day study, FIG. 2B) of the same compound?
A: dose proportional decrease in body weight

Q: What about the “lipid droplets in the liver (histology)” value ([2]; liraglutide, regardless of whether combined with mIgG1 or Ab2, FIG. 2G) of the same compound?
A: dose-dependent reduction
